The target in test [1] is cynomolgus monkey IL-23 (cynomolgus monkey). Description: solution competition ELISA (FIG. 5B). Background: ELISA stands for enzyme-linked immunosorbent assay.
The target is the same in test [2]. Description: solution competition ELISA (FIG. 5A).

These are yes or no findings as the source states them, for the method shown. Binding calls can cover weak binding; strength is not graded here.

B1: lipocalin mutein SEQ ID NO: 9 (designed binder)
chain: QDSTSDLIPAPPLSKVPLQQNFQDNQFHGKWYVVGMAGNLMLREDKDPTKMSATIYELKEDKSYNVTWVDFRFKKCKYQIGTFVPGSQPGEFTLGGIKSMPGMTSFLVRVVSTNYNQHAMVFFKYVYQNREYFEITLYGRTKELTSELKENFIRFSKSLGLPENHIVFPVPIDQCIDG
Consider B1, for which the binding entry in test [1] is recorded as “binds”.

B2: lipocalin mutein SEQ ID NO: 10 (designed binder)
chain: QDSTSDLIPAPPLSKVPLQQNFQDNQFHGKWYVVGLAGNTILREDKDPDKMEATIYELKEDKSYNVTSVDFIMKKCWYFITTFVPGSQPGEFTLGHIKSMPGMTSFLVRVVSTNYNQHAMVFFKYVYQNREFFEITLYGRTKELTSELKENFIRFSKSLGLPENHIVFPVPIDQCIDG
In the case of B2, the binding entry in test [2] was “binds”.

(Values after patent US20200148733A1.)
